Experimental data taken from the supplement of paper PMC8728848.
This is one part of the list.

Tests used:
Assay in all cases: glycan array binding signal (z-score within array); higher = stronger binding
Conditions in all cases: glycan notation: IUPAC condensed, linker removed
Glc(b1-6)Glc = target: Glc(b1-6)Glc
How it was run: (§1)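 The binding signal is a Z-score computed within each array and averaged over linkers. Arrays of the same protein sequence at different concentrations or buffers were also averaged together. Data originate from 3228 arrays in the Consortium for Functional Glycomics database, kept only where the protein sequence was available.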

GlcA(b1-3)Gal = target: GlcA(b1-3)Gal
How it was run: as §1

GlcA(b1-3)GlcNAc = target: GlcA(b1-3)GlcNAc
How it was run: as §1

GlcA(b1-6)Gal = target: GlcA(b1-6)Gal
How it was run: as §1

[1] = target: GlcA3S(b1-3)Gal(b1-4)GlcNAc(b1-2)Man
How it was run: as §1

[2] = target: GlcA3S(b1-3)Gal(b1-4)GlcNAc(b1-3)Gal(b1-4)Glc
How it was run: as §1

[3] = target: GlcNAc(a1-3)Gal(b1-4)GlcNAc
How it was run: as §1

[4] = target: GlcNAc(a1-4)Gal(b1-3)GlcNAc
How it was run: as §1

[5] = target: GlcNAc(a1-4)Gal(b1-4)GalNAc
How it was run: as §1

[6] = target: GlcNAc(a1-4)Gal(b1-4)GlcNAc
How it was run: as §1

[7] = target: GlcNAc(a1-4)Gal(b1-4)GlcNAc(b1-3)Gal(b1-4)Glc
How it was run: as §1

[8] = target: GlcNAc(a1-4)Gal(b1-4)GlcNAc(b1-3)Gal(b1-4)GlcNAc
How it was run: as §1

[9] = target: GlcNAc(a1-4)Gal(b1-4)GlcNAc(b1-3)Gal(b1-4)GlcNAc(b1-3)Gal(b1-4)GlcNAc
How it was run: as §1

[10] = target: GlcNAc(a1-4)Gal(b1-4)GlcNAc(b1-3)Gal(b1-4)[Fuc(a1-3)]GlcNAc(b1-3)Gal(b1-4)[Fuc(a1-3)]GlcNAc
How it was run: as §1

[11] = target: GlcNAc(a1-6)Gal(b1-4)GlcNAc
How it was run: as §1

[12] = target: GlcNAc(b1-2)Gal(b1-3)GalNAc
How it was run: as §1

[13] = target: GlcNAc(b1-2)Man(a1-3)[GlcNAc(b1-2)Man(a1-6)]Man(b1-4)GlcNAc(b1-4)GlcNAc
How it was run: as §1

[14] = target: GlcNAc(b1-2)Man(a1-3)[GlcNAc(b1-2)Man(a1-6)]Man(b1-4)GlcNAc(b1-4)[Fuc(a1-6)]GlcNAc
How it was run: as §1

[15] = target: GlcNAc(b1-2)Man(a1-3)[GlcNAc(b1-4)][GlcNAc(b1-2)Man(a1-6)]Man(b1-4)GlcNAc(b1-4)GlcNAc
How it was run: as §1

[16] = target: GlcNAc(b1-2)Man(a1-3)[GlcNAc(b1-4)][GlcNAc(b1-2)Man(a1-6)]Man(b1-4)GlcNAc(b1-4)[Fuc(a1-6)]GlcNAc
How it was run: as §1

[17] = target: GlcNAc(b1-2)[GlcNAc(b1-4)]Man(a1-3)[GlcNAc(b1-2)Man(a1-6)]Man(b1-4)GlcNAc(b1-4)GlcNAc
How it was run: as §1

[18] = target: GlcNAc(b1-2)[GlcNAc(b1-4)]Man(a1-3)[GlcNAc(b1-4)][GlcNAc(b1-2)Man(a1-6)]Man(b1-4)GlcNAc(b1-4)GlcNAc
How it was run: as §1

[19] = target: GlcNAc(b1-2)[GlcNAc(b1-4)]Man(a1-3)[GlcNAc(b1-4)][GlcNAc(b1-2)[GlcNAc(b1-6)]Man(a1-6)]Man(b1-4)GlcNAc(b1-4)GlcNAc
How it was run: as §1

[20] = target: GlcNAc(b1-2)[GlcNAc(b1-4)]Man(a1-3)[GlcNAc(b1-4)][GlcNAc(b1-2)[GlcNAc(b1-6)]Man(a1-6)]Man(b1-4)GlcNAc(b1-4)[Fuc(a1-6)]GlcNAc
How it was run: as §1

[21] = target: GlcNAc(b1-2)[GlcNAc(b1-6)]Man(a1-6)[GlcNAc(b1-2)Man(a1-3)]Man(b1-4)GlcNAc(b1-4)GlcNAc
How it was run: as §1

[22] = target: GlcNAc(b1-2)[GlcNAc(b1-6)]Man(a1-6)[GlcNAc(b1-2)Man(a1-3)]Man(b1-4)GlcNAc(b1-4)[Fuc(a1-6)]GlcNAc
How it was run: as §1

[23] = target: GlcNAc(b1-2)[GlcNAc(b1-6)]Man(a1-6)[GlcNAc(b1-4)][GlcNAc(b1-2)Man(a1-3)]Man(b1-4)GlcNAc(b1-4)GlcNAc
How it was run: as §1

GlcNAc(b1-3)Fuc = target: GlcNAc(b1-3)Fuc
How it was run: as §1

GlcNAc(b1-3)Gal = target: GlcNAc(b1-3)Gal
How it was run: as §1

[24] = target: GlcNAc(b1-3)Gal(b1-3)GalNAc
How it was run: as §1

GlcNAc(b1-3)Gal(b1-4)Glc = target: GlcNAc(b1-3)Gal(b1-4)Glc
How it was run: as §1

[25] = target: GlcNAc(b1-3)Gal(b1-4)GlcNAc
How it was run: as §1

[26] = target: GlcNAc(b1-3)Gal(b1-4)GlcNAc(b1-2)Man(a1-3)[GlcNAc(b1-3)Gal(b1-4)GlcNAc(b1-2)Man(a1-6)]Man(b1-4)GlcNAc(b1-4)GlcNAc
How it was run: as §1

[27] = target: GlcNAc(b1-3)Gal(b1-4)GlcNAc(b1-2)Man(a1-3)[GlcNAc(b1-3)Gal(b1-4)GlcNAc(b1-2)Man(a1-6)]Man(b1-4)GlcNAc(b1-4)[Fuc(a1-6)]GlcNAc
How it was run: as §1

[28] = target: GlcNAc(b1-3)Gal(b1-4)GlcNAc(b1-2)[GlcNAc(b1-3)Gal(b1-4)GlcNAc(b1-6)]Man(a1-6)[GlcNAc(b1-3)Gal(b1-4)GlcNAc(b1-2)Man(a1-3)]Man(b1-4)GlcNAc(b1-4)GlcNAc
How it was run: as §1

[29] = target: GlcNAc(b1-3)Gal(b1-4)GlcNAc(b1-3)Gal(b1-4)GlcNAc
How it was run: as §1

[30] = target: GlcNAc(b1-3)Gal(b1-4)GlcNAc(b1-3)Gal(b1-4)GlcNAc(b1-2)Man(a1-3)[GlcNAc(b1-3)Gal(b1-4)GlcNAc(b1-3)Gal(b1-4)GlcNAc(b1-2)Man(a1-6)]Man(b1-4)GlcNAc(b1-4)GlcNAc
How it was run: as §1

B1: B3GalT2 (Rattus norvegicus) (protein)
chain: LMLQWRRRHCCFAKMSWNAKRSLFRTHLMGVLSLVFLFAMFLFFNHHDWLPGRPGFKENPVTYTFRGFRSTKTETNQSSLRNIWKEVVPQTLRPQTATNSNNTELSPQGVTGLENTLSANGSIYNEKGTGHPNSYHFKYIINEPEKCQEKSPFLILLIAAEPGQIEARRAIRQTWGNETLAPGIQITRIFLLGISIKLNGYLQHAIQEESIQYHDIIQQEYLDTYYNLTIKTLMGMNWVATYCPHTPYVMKTDSDMFVNTEYLIHKLLKPDLPPRHNYFTGYLMRGYAPNRNKDSKWYMPPDLYPSERYPVFCSGTGYVFSGDLAEKIFKVSLGIRRLHLEDVYVGICLAKLRVDPVPPPNEFVFNHWRVSYSSCKYSHLITSHQFQPSELIKYWNHLQQNKHNACVNAAKEKAGRYRHRKLH
Glc(b1-6)Glc
  glycan array binding signal (z-score): -0.792
GlcA(b1-3)Gal
  glycan array binding signal (z-score): -0.382
GlcA(b1-3)GlcNAc
  glycan array binding signal (z-score): -0.352
GlcA(b1-6)Gal
  glycan array binding signal (z-score): -0.081
[1]
  glycan array binding signal (z-score): 0.326
[2]
  glycan array binding signal (z-score): 0.751
[3]
  glycan array binding signal (z-score): 0.555
[4]
  glycan array binding signal (z-score): -0.143
[5]
  glycan array binding signal (z-score): -0.2
[6]
  glycan array binding signal (z-score): 0.611
[7]
  glycan array binding signal (z-score): -0.563
[8]
  glycan array binding signal (z-score): -0.113
[9]
  glycan array binding signal (z-score): -1.03
[10]
  glycan array binding signal (z-score): -0.88
[11]
  glycan array binding signal (z-score): 0.777
[12]
  glycan array binding signal (z-score): 0.898
[13]
  glycan array binding signal (z-score): -0.723
[14]
  glycan array binding signal (z-score): -0.779
[15]
  glycan array binding signal (z-score): -0.007
[16]
  glycan array binding signal (z-score): -0.485
[17]
  glycan array binding signal (z-score): -0.856
[18]
  glycan array binding signal (z-score): -0.855
[19]
  glycan array binding signal (z-score): -0.56
[20]
  glycan array binding signal (z-score): -1.02
[21]
  glycan array binding signal (z-score): -0.933
[22]
  glycan array binding signal (z-score): -0.633
[23]
  glycan array binding signal (z-score): -0.866
GlcNAc(b1-3)Fuc
  glycan array binding signal (z-score): -0.242
GlcNAc(b1-3)Gal
  glycan array binding signal (z-score): -0.436
[24]
  glycan array binding signal (z-score): -0.901
GlcNAc(b1-3)Gal(b1-4)Glc
  glycan array binding signal (z-score): 0.471
[25]
  glycan array binding signal (z-score): -0.042
[26]
  glycan array binding signal (z-score): -0.524
[27]
  glycan array binding signal (z-score): 0.685
[28]
  glycan array binding signal (z-score): -1.04
[29]
  glycan array binding signal (z-score): -0.743
[30]
  glycan array binding signal (z-score): -0.197
